Results deposited as PubChem BioAssay AID504774 (Drosophila RNAi Screening Center, 2011).
In all, the deposit lists about 23,000 reagents; shown is an unselected part of those that have a named target and a result. 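Values are quantile-normalised luminescence on an arbitrary scale; higher means more cells surviving MMS.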 A plus sign joins genes that one reagent is predicted to hit. Not all columns of the deposit are shown. Reagent sequences are not shown.

Aim: 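Genes required for cells to withstand methyl methanesulphonate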 (primary screen)
Cell system: Drosophila Kc167 cells
Reagent: long dsRNA against Drosophila genes, about 0.25 µg dsRNA per well
Duration: about 6 days: 3 days knock-down, then 3 days with or without MMS
Treatment: methyl methanesulphonate 0.004% (w/v) for 3 days after knock-down
Read-out: 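Viability in wells given MMS, read as ATP luminescence, normalised by quantiles plate by plate and averaged across replicates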
Reading the numbers: mean viability with MMS and viability with MMS: higher = more surviving cells after MMS

ste24a [DRSC07314]: mean viability with MMS = 3.36e6; viability with MMS, replicate 1 = 3.84e6
RpS5a [DRSC20282]: mean viability with MMS = 3.30e6; viability with MMS, replicate 1 = 3.74e6
Sulf1 [DRSC16874]: mean viability with MMS = 3.44e6; viability with MMS, replicate 1 = 3.91e6
CG13223 [DRSC06344]: mean viability with MMS = 3.51e6; viability with MMS, replicate 1 = 3.93e6
BckdhA [DRSC16395]: mean viability with MMS = 3.60e6; viability with MMS, replicate 1 = 4.09e6
CG11368 [DRSC17778]: mean viability with MMS = 3.39e6; viability with MMS, replicate 1 = 3.83e6
blot [DRSC09485]: mean viability with MMS = 3.73e6; viability with MMS, replicate 1 = 4.12e6
blot [DRSC11328]: mean viability with MMS = 3.68e6; viability with MMS, replicate 1 = 4.07e6
CLIP-190 [DRSC03283]: mean viability with MMS = 3.47e6; viability with MMS, replicate 1 = 3.98e6
Cda4 [DRSC20623]: mean viability with MMS = 3.63e6; viability with MMS, replicate 1 = 4.08e6
Cda4 [DRSC20641]: mean viability with MMS = 3.48e6; viability with MMS, replicate 1 = 3.97e6
Cda4 [DRSC20642]: mean viability with MMS = 3.54e6; viability with MMS, replicate 1 = 4.00e6
Etl1 [DRSC02911]: mean viability with MMS = 3.56e6; viability with MMS, replicate 1 = 4.14e6
REPTOR [DRSC14626]: mean viability with MMS = 3.47e6; viability with MMS, replicate 1 = 3.91e6
CG7239 [DRSC03038]: mean viability with MMS = 2.66e6; viability with MMS, replicate 1 = 2.84e6
CG7239 [DRSC23113]: mean viability with MMS = 3.69e6; viability with MMS, replicate 1 = 4.20e6
in [DRSC11888]: mean viability with MMS = 3.54e6; viability with MMS, replicate 1 = 4.06e6
CG30430 [DRSC22260]: mean viability with MMS = 3.43e6; viability with MMS, replicate 1 = 3.92e6
Noc2 [DRSC03165]: mean viability with MMS = 3.34e6; viability with MMS, replicate 1 = 3.73e6
RpS29 + snoRNA:Psi18S-1275 [DRSC16433]: mean viability with MMS = 2.94e6; viability with MMS, replicate 1 = 3.69e6
Cdk5alpha [DRSC03290]: mean viability with MMS = 3.53e6; viability with MMS, replicate 1 = 3.96e6
Cdk5alpha [DRSC23301]: mean viability with MMS = 3.33e6; viability with MMS, replicate 1 = 3.77e6
CG31688 [DRSC02682]: mean viability with MMS = 3.65e6; viability with MMS, replicate 1 = 4.17e6
Nup75 [DRSC06947]: mean viability with MMS = 3.17e6; viability with MMS, replicate 1 = 3.66e6
TER94 [DRSC07560]: mean viability with MMS = 3.26e6; viability with MMS, replicate 1 = 3.73e6
CG5715 [DRSC15860]: mean viability with MMS = 3.57e6; viability with MMS, replicate 1 = 4.04e6
Rab27 [DRSC18567]: mean viability with MMS = 3.62e6; viability with MMS, replicate 1 = 4.11e6
Gart [DRSC03481]: mean viability with MMS = 3.53e6; viability with MMS, replicate 1 = 4.22e6
egg [DRSC04119]: mean viability with MMS = 2.94e6; viability with MMS, replicate 1 = 2.82e6
egg [DRSC22534]: mean viability with MMS = 3.86e6; viability with MMS, replicate 1 = 4.53e6
CG13950 [DRSC00368]: mean viability with MMS = 3.50e6; viability with MMS, replicate 1 = 4.01e6
mei-217 + mei-218 [DRSC20349]: mean viability with MMS = 3.59e6; viability with MMS, replicate 1 = 4.03e6
CG34260 + cmpy [DRSC11701]: mean viability with MMS = 3.47e6; viability with MMS, replicate 1 = 3.83e6
loqs [DRSC02997]: mean viability with MMS = 3.50e6; viability with MMS, replicate 1 = 4.02e6
Dpck [DRSC12575]: mean viability with MMS = 3.54e6; viability with MMS, replicate 1 = 4.04e6
